Measurements reported in publication PMC7721366.
Results are given in words; binding and its absence hold for the method and conditions named. Binding seen in cells or lysates may run through a third protein. Some results given as binding are weak or reduced against the parent protein; the word gives no strength.

Amino acid sequences for entries named in this document (tags omitted).
UniProt Q92793: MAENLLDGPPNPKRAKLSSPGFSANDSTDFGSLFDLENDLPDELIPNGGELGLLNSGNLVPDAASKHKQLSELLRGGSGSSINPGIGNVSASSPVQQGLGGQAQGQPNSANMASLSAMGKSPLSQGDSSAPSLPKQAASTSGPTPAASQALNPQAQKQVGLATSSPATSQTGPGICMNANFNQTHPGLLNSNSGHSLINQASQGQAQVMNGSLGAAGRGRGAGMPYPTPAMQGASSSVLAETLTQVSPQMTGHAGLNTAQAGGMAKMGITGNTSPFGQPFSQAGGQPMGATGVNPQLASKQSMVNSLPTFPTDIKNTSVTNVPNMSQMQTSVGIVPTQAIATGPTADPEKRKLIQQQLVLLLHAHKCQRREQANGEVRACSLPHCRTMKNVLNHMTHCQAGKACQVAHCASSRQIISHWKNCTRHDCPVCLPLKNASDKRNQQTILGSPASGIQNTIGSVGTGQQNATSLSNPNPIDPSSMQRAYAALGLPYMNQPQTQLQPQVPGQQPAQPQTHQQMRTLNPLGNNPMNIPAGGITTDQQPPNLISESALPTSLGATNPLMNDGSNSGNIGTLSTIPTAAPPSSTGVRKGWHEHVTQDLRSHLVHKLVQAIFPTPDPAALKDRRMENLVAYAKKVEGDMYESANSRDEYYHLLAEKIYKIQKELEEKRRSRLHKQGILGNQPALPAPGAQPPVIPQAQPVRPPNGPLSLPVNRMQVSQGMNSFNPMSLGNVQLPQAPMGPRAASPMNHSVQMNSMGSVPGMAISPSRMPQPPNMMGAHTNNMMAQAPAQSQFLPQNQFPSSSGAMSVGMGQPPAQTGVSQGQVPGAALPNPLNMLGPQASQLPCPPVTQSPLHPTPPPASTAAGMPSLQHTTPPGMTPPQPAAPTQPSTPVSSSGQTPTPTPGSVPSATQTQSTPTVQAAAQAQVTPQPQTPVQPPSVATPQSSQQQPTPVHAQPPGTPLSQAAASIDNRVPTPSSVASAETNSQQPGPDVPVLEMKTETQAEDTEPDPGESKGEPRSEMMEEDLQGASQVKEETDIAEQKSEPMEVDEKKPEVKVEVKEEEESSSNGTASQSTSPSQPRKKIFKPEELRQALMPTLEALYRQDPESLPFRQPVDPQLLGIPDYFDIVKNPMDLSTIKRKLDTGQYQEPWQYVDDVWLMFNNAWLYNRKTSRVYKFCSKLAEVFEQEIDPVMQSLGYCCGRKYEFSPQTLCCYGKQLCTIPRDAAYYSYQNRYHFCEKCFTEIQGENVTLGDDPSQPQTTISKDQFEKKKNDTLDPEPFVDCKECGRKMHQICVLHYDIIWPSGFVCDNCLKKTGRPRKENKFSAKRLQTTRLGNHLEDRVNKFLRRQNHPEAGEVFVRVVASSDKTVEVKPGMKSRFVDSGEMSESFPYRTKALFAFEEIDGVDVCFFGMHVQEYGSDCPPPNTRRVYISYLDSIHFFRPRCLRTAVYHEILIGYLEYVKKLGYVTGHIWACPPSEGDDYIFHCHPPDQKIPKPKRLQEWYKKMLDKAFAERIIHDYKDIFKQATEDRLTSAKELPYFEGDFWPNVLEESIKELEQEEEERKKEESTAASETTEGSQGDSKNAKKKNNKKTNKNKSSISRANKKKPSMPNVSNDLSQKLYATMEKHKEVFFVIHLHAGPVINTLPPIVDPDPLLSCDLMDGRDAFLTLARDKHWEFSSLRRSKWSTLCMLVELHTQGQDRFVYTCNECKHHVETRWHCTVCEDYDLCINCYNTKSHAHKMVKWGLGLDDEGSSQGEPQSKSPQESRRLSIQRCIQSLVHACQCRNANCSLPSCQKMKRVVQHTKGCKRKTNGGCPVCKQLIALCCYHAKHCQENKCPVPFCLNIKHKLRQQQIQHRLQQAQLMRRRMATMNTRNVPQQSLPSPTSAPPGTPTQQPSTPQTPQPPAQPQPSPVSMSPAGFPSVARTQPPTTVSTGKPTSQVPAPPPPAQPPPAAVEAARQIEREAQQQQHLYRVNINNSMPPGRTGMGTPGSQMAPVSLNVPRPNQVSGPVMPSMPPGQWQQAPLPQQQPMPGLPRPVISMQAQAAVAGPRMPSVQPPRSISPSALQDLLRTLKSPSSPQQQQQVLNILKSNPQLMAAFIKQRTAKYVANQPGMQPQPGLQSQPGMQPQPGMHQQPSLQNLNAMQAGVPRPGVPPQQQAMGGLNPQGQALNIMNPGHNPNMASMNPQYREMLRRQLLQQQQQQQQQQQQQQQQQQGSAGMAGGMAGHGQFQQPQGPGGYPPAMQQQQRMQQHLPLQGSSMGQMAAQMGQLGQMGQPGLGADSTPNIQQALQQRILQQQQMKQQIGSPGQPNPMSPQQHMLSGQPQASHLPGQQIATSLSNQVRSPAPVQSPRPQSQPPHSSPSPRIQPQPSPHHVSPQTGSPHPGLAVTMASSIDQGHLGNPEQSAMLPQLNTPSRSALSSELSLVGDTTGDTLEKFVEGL
UniProt Q09472: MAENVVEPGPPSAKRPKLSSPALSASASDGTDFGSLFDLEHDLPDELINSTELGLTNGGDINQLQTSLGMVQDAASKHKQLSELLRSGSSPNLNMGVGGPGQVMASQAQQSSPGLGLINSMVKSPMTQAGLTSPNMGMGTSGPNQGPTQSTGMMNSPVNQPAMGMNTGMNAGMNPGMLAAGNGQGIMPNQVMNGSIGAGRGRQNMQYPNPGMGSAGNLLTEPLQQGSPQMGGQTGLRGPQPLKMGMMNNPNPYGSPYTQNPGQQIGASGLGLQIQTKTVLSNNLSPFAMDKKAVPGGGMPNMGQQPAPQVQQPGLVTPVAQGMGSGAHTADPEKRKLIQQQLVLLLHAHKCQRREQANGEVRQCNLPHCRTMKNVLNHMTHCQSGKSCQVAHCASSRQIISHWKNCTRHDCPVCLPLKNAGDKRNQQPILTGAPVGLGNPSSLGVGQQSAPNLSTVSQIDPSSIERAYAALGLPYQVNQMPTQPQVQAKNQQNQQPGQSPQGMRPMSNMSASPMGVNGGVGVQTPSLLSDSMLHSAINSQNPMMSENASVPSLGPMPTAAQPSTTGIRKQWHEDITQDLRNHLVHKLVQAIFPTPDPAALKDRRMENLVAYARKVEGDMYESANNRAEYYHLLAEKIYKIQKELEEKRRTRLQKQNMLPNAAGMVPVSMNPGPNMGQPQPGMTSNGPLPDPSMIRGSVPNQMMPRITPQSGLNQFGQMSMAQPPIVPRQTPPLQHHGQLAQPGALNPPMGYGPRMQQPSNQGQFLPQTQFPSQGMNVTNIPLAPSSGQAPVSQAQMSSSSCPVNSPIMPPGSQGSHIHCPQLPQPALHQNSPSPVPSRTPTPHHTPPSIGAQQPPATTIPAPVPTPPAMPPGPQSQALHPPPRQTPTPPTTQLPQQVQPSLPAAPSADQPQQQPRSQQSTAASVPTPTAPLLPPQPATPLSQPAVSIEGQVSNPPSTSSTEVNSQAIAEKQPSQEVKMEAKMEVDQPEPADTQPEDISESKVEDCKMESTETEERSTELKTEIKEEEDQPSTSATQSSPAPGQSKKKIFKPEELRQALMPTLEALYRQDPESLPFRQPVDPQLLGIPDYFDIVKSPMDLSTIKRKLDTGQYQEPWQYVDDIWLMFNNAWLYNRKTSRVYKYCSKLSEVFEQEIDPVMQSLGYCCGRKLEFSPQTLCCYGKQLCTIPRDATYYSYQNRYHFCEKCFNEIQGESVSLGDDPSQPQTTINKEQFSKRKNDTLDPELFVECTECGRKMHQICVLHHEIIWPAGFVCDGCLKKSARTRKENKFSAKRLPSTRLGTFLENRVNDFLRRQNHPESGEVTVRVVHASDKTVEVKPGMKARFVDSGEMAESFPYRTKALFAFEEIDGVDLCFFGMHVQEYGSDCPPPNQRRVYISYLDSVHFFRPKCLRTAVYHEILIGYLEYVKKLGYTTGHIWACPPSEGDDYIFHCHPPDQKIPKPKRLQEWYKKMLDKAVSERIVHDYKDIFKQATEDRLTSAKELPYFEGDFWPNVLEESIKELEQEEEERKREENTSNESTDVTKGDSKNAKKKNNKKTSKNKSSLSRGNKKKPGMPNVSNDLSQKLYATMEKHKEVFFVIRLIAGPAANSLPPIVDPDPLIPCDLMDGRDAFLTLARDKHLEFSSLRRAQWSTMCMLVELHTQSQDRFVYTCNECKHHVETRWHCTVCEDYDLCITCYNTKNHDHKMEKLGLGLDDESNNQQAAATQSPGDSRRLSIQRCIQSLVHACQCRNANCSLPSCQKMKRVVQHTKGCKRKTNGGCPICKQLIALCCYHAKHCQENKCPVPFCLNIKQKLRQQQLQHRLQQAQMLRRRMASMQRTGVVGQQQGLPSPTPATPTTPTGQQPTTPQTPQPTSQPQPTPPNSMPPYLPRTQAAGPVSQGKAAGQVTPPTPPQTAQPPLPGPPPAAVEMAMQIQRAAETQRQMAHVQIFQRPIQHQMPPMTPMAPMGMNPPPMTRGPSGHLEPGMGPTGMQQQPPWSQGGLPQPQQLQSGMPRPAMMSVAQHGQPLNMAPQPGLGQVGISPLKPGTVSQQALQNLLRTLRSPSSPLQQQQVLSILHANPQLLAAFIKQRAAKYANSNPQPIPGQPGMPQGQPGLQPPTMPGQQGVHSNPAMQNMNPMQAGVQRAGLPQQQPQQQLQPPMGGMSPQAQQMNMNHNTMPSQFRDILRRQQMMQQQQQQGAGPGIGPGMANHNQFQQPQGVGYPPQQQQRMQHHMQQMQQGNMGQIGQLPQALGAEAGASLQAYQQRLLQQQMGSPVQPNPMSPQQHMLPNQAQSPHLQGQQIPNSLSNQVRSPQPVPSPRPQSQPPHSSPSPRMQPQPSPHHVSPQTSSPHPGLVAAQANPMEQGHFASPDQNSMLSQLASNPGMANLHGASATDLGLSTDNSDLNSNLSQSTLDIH

Biological target: T1, Special AT-rich Binding Protein-2 (SATB2) (human (endogenous in GSCs)) (UniProt Q9UPW6)
T1 sequence: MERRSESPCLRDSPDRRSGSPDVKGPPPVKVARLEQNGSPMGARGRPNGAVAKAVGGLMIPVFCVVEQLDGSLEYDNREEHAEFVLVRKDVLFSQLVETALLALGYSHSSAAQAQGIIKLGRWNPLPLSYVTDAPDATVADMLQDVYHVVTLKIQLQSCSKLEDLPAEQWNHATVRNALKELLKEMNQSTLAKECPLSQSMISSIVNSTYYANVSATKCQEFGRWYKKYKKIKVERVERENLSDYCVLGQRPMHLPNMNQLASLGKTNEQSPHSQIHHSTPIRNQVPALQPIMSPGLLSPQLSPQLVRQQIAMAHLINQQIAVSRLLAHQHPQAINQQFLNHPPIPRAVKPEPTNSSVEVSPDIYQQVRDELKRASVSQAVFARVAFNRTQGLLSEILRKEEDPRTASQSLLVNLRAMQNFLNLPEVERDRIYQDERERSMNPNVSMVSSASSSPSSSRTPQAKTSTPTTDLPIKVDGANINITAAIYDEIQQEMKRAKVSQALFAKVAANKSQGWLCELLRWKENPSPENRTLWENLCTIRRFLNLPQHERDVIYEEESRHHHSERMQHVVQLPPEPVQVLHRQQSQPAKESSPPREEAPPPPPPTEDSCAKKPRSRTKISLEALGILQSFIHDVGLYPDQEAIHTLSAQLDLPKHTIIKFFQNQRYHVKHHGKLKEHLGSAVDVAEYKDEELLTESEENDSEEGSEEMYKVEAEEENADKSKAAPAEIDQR
Test: co-IP; endogenous proteins in GSC lysates (IP lysis buffer); primary antibody and protein A/G Plus agarose beads overnight at 4°C; immunoblot of the precipitates

Row | binding | Substance
1 | binds | histone acetyltransferase CBP (from UniProt Q92793 1-2442)
2 | no binding | histone acetyltransferase P300 (from UniProt Q09472 1-2414)
